Publication PMC4612562, “Coronin 2A (CRN5) expression is associated with colorectal adenoma-adenocarcinoma sequence and oncogenic signalling” (BMC Cancer, 2015)
No constants are given. Whether binding was seen depends on the method and setting. Some binding calls cover weakened binding; strength is not graded here. Tags and fused reporters may be left off the sequences shown.

By UniProt entry, the sequences of proteins in these tests, tags left out.
UniProt Q16539: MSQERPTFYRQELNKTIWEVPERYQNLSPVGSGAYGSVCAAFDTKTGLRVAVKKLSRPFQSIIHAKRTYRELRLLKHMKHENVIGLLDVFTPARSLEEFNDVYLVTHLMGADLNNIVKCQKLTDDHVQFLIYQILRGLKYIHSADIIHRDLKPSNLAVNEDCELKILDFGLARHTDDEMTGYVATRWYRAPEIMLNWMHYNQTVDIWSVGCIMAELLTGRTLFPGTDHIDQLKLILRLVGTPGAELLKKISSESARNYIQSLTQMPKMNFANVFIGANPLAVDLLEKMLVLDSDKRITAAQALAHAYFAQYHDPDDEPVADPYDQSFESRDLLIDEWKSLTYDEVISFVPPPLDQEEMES

What was measured:
[1] = biological target: T1, GST-CRN5 (coronin 2A) (human) (UniProt Q92828); assay: co-IP; GST-CRN5 held by CRN5 mAb K77-578-1 on Protein G-coated magnetic microbeads (Miltenyi columns), washed; GST-MAPK14 purified from HEK293 cells circulated five times through the columns; washed, eluted with SDS sample buffer; GST pAb immunoblot; both purified
T1 sequence: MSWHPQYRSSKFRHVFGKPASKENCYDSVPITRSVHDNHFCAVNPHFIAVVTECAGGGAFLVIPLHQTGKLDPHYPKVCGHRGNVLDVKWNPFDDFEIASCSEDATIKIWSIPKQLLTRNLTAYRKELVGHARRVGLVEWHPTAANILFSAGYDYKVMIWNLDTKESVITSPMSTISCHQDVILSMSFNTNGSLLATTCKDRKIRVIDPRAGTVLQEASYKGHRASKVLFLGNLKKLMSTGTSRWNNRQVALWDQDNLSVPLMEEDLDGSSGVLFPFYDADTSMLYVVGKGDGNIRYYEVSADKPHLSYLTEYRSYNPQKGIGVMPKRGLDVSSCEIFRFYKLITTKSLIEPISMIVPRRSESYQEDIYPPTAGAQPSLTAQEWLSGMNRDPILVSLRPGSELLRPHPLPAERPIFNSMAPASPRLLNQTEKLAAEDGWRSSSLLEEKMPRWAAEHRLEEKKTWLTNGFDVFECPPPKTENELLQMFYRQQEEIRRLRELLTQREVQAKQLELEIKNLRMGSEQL

[2] = biological target: T1, GST-CRN5 (coronin 2A) (human); assay: pull-down; GST-CRN5 on glutathione-sepharose beads as bait; TEV-cleaved MAPK14 or purified His6-PRMT5 as prey; 50 mM Tris/HCl pH 8.0, 150 mM NaCl, 0.5 % NP-40; three washes; SDS-PAGE and immunoblot; both purified

Substance	binding [1]	binding [2]
GST-MAPK14 purified from HEK293 cells (phosphorylated, active) (from UniProt Q16539 1-360) (enzyme)	binds	–
MAPK14, non-tagged, purified from E. coli (non-phosphorylated, inactive) (from UniProt Q16539 1-360) (enzyme)	–	binds
